Reference: paper PMC12631104

Chains of the proteins cited; added tags and fusions are not shown. Lines headed by an entry give the natural chain unless they say otherwise; changes in a name come on top.
UniProt P09429: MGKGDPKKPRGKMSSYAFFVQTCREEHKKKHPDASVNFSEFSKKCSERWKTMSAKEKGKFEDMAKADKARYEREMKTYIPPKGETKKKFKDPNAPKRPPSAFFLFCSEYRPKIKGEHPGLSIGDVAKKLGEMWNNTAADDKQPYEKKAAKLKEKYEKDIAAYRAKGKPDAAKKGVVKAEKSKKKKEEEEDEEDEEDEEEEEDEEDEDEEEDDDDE
UniProt O94813: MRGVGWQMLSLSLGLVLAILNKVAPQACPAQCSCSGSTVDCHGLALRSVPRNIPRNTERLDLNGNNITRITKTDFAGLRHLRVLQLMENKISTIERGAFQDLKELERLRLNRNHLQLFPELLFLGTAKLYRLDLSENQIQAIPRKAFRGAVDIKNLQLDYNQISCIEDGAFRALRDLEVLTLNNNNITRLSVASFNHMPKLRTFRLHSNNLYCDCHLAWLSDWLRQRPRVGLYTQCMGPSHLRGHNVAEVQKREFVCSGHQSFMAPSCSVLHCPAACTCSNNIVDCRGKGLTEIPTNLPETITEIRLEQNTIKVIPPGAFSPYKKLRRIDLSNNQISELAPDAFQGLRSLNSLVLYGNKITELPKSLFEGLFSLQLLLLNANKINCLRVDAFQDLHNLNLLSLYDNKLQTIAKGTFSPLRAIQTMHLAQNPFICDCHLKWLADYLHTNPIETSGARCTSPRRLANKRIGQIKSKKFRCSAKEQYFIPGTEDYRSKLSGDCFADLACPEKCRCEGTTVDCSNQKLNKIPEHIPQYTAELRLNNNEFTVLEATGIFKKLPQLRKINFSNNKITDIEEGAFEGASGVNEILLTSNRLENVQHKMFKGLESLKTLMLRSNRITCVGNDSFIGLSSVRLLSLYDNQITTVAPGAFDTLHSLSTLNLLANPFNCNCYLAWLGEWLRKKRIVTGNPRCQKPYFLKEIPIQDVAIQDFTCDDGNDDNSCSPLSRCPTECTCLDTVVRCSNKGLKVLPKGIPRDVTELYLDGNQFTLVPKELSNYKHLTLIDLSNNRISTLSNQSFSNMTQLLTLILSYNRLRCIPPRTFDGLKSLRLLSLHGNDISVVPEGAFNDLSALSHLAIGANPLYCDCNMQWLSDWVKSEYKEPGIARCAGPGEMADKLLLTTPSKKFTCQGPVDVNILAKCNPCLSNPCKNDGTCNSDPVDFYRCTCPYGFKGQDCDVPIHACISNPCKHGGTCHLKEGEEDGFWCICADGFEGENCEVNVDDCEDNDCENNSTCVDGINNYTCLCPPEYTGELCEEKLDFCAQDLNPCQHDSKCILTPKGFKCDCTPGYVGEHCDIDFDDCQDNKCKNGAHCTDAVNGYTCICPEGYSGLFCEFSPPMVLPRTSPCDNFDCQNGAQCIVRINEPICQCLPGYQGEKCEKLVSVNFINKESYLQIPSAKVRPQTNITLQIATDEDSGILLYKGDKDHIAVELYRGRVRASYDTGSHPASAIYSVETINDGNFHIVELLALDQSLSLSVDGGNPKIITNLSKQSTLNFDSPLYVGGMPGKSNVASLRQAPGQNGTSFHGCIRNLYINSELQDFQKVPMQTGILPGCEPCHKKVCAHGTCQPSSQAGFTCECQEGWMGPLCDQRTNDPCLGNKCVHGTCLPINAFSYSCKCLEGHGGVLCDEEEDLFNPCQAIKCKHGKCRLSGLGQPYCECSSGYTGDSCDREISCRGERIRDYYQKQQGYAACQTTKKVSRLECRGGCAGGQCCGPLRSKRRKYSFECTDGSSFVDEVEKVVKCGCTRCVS

What was measured:
Test in all cases: pull-down; purified GST or GST-fusion HMGB1/2 immobilized on glutathione resin (4 C, 2 hours), incubated with purified SLIT2, SLIT2-N or SLIT2-C (4 C, 4 hours); washed with PBS, 0.1% Triton X-100; SDS-PAGE and immunoblotting; both purified
[1] = biological target: GST-fusion HMGB1 (high mobility group box 1) (UniProt P09429)
[2] = biological target: T1, GST-fusion HMGB2 (high mobility group box 2) (UniProt P26583)
T1 sequence: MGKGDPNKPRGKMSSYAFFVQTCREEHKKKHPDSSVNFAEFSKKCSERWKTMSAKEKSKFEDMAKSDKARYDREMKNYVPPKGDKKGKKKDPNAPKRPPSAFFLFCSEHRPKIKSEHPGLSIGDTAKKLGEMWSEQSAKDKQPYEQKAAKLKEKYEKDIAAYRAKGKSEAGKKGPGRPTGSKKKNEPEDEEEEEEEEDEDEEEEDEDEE

[3] = biological target: K-Hcy-modified GST-fusion HMGB1 (UniProt P09429)
[4] = biological target: T2, K-Hcy-modified GST-fusion HMGB2 (UniProt P26583)
T2 sequence (chain, N-homocysteinylated lysines (K-Hcy); sites not stated for this protein): T1 sequence

binding [1]	binding [2]	binding [3]	binding [4]	Substance
binds	binds			purified SLIT2-C terminal (C) protein (from UniProt O94813) (domain or fragment)
binds	binds	binds	binds	purified SLIT2-N terminal (N) protein (from UniProt O94813) (domain or fragment)

These are yes or no findings as the source states them, for the method shown. Binding can be weak; no strength is given. For part of these data: Where a sequence is shown, tags or fusion partners need not be part of it.
